Measurements: patent US11732277B2, “Cellular production of pure iron oxide nanoparticles” (NANOBACTERIE, priority 2018, dated 2023)
Some of these results come from one statement about several compounds together.

Test system: MSR-1 magnetotactic bacteria
Type: cell-based
Conditions: condition 4, individual vitamin replacing yeast extract; at D13
Description: Measurement of the magnetic response of living magnetotactic bacteria using optical microscopic observations of these bacteria under the application of a magnetic field: 1 mL of a suspension of MSR-1 magnetotactic bacteria was centrifugated at 14500 rpm for 10 minutes. The growth medium was removed and replaced by a volume of PBS 0.1× to reach an OD565 nm of 0.5. 1 μL of this suspension of MSR-1 magnetotactic bacteria was deposited on a parallelipedic microscope slide (Menzel-Glaser, 24 mm×60 mm, […]) for microscopic observation using a Zeiss Primo Vert optical microscope with X40 magnification. Four small cubic Neodinium magnets of strength 1.3 T (Supermagnet, N42 W-10-N 10×10×10 mm) were positioned on the microscope's platform at a distance from the suspension of bacteria of ˜2 cm in such a way that it either generated a magnetic field parallel to the position of the observer or to the line between the two binoculars (position 1) or perpendicular to this position (position 2). 20 seconds after positioning the magnet in position 1 or 2, the percentage of bacteria aligned in the direction of the magnetic field was estimated, by considering 200 magnetotactic bacteria. […]
In some cases, the percentage of magnetic bacteria can be measured by optical observation under microscope in the presence of a magnetic field.

Structure (SMILES): O=C(O)CCCC[C@@H]1SC[C@@H]2NC(=O)N[C@@H]21 [Biotin]
- magnetic response: > 90%
